{"sequences": {"note": "Amino acid sequences for entries named in this document (tags omitted). A change or cut given only in a name is not applied to a line headed by its entry.", "UniProt O00391": "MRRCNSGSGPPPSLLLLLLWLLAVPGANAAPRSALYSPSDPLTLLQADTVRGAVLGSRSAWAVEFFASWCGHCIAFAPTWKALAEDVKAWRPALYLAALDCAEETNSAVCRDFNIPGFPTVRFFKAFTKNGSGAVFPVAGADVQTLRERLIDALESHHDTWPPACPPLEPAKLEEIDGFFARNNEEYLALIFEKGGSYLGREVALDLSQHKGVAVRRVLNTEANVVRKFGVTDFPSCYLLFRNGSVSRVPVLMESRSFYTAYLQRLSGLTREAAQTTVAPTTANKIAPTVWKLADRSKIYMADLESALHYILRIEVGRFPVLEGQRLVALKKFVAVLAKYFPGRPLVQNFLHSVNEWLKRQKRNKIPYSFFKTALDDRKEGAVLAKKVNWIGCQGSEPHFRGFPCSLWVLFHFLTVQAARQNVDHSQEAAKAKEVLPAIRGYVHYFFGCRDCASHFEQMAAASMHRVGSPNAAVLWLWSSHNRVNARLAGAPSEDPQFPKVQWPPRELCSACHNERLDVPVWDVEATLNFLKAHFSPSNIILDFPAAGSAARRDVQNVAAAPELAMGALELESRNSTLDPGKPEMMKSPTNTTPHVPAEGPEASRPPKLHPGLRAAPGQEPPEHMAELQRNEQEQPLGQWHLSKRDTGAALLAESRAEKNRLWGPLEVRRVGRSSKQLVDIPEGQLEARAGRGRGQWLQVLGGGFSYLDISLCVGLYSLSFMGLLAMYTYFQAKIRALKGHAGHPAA"}, "source": "PubChem BioAssay AID1347421", "about": "(Sanford-Burnham Center for Chemical Genomics, 2020)", "note": "The full ranking holds about 1,500 compounds; the median of “activity” is about 2, and the lowest 2% start at about -18. The list shows a part of the results. The source made the active and inactive calls.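 The calls were made as follows: active = inhibition of at least 40% at 10 µM; inconclusive = no clear call, values can overlap the other calls; inactive = the rest.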"}
{"target": "Sulfhydryl oxidase 1 (Homo sapiens) (UniProt O00391)", "assay": "QSOX1 enzyme inhibitors, confirmation, biochemical, ROS-Glo luminescence, single concentration (AID 1347421);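 also: 0% = DMSO wells with enzyme and 100% = wells lacking QSOX1 enzyme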", "settings": "recombinant hQSOX1, RNase A substrate, ROS-Glo H2O2 luminescence; at 10 µM"}
{"smiles": "C=CCC(=O)N(CCOC)CC1CCCN(C2Cc3ccccc3C2)C1", "note": "(stereo unspecified)", "activity": "6.2%"}
{"smiles": "COc1ccccc1N1CCN(c2ncccc2CNC(=O)CN(C)C)CC1", "activity": "1.1%"}
{"smiles": "O=C(O)c1ccc(S(=O)(=O)N2CCSCC2)cc1", "activity": "inactive: -3%"}
{"smiles": "CCCNC(=O)c1nc(SC)ncc1Cl", "activity": "inactive: -17.1%"}
{"smiles": "CCCCc1ncc(CN2CCc3onc(-c4ccccc4F)c3C2)[nH]1", "activity": "inactive: -3.8%"}
{"smiles": "Cc1cc(C(=O)N2CCC3(CCCN(CC4CCCCC4)C3=O)C2)n[nH]1", "note": "(stereo unspecified)", "activity": "inactive: -4.3%"}
{"smiles": "CCN(Cc1ccncc1)Cc1ccc(OC)cc1OCC(O)CN1CCCC1", "note": "(stereo unspecified)", "activity": "8.1%"}
{"smiles": "Cn1cc(CN2CCCC(C(N)=O)C2)c(-c2ccc(C3CCCCC3)cc2)n1", "note": "(stereo unspecified)", "activity": "6.3%"}
{"smiles": "C=CC[C@@H]1CC=C[C@@H](C)N1Cc1cn[nH]c1-c1cc(OC)c(OC)c(OC)c1", "activity": "inactive: -2.7%"}
{"smiles": "Cc1nnc(SCC(=O)NC2CCCCC2)[nH]c1=O", "activity": "7.5%"}
{"smiles": "Cn1c(CN2CCCC(CO)(Cc3ccc(F)cc3F)C2)nc2ccccc21", "note": "(stereo unspecified)", "activity": "inactive: -0.4%"}
{"smiles": "CC(=O)Nc1ccc(C(=O)CSc2cc(C)c3ccccc3n2)cc1", "activity": "inactive: -0.4%"}
{"smiles": "CN1CCN(C(=O)CCC2CCCN(C(=O)Cc3ccc4c(c3)OCO4)C2)CC1", "note": "(stereo unspecified)", "activity": "0.8%"}
{"smiles": "COc1ccc(-c2nc(CN(CC3CC3)CC3CCCO3)c(C)o2)c(OC)c1", "note": "(stereo unspecified)", "activity": "1.5%"}
{"smiles": "Cc1ccc(NC(=O)c2ccc(N)cc2)c(N)c1", "activity": "10.6%"}
{"smiles": "CN(C)C(=O)CN1CCN(Cc2c(C(=O)N3CCOCC3)nc3ccccn23)CC1", "activity": "0.5%"}
{"smiles": "Cc1cc(CNCC2(c3cccc(F)c3)CCOC2)ccn1", "note": "(stereo unspecified)", "activity": "9.4%"}
{"smiles": "CC(C)c1nc(CNC(=O)CCc2nnc(C3CCCCC3)o2)cs1", "activity": "2.3%"}
{"smiles": "COc1cc(C)nc(NC(=O)Nc2cccc(Cl)c2)n1", "activity": "inactive: -2.3%"}
{"smiles": "O=c1cc(N2CCNCC2)cnn1Cc1ccc(C(F)(F)F)nc1", "activity": "inactive: -1.2%"}
{"smiles": "O=C1CCC(C(=O)N2CCC3(C=Cc4ccccc43)CC2)CN1CCc1ccccn1", "note": "(stereo unspecified)", "activity": "3.8%"}
{"smiles": "O=C(NC1CCS(=O)(=O)C1)C(c1ccccc1)c1ccccc1", "note": "(stereo unspecified)", "activity": "inactive: -13.7%"}
{"smiles": "COc1ccc(CN2CC[C@@H](N(C)CCc3ccccn3)[C@H](O)C2)c(C)c1C", "activity": "4.3%"}
{"smiles": "O=C(NCCN1CCCCC1)c1coc(CN2CCN(c3ccccc3F)CC2)n1", "activity": "inactive: -0.2%"}
{"smiles": "CN(CCc1ccccc1)C1CCCN(C(=O)CCc2nc3ccccc3[nH]2)C1", "note": "(stereo unspecified)", "activity": "1.6%"}
{"smiles": "Cc1nc(CN2CCN(c3nncc(-c4cccc5ccccc45)n3)CC2)cs1", "activity": "2%"}
{"smiles": "CCN(CC)CC(O)COc1cc(CN(C)CCC2CCOCC2)ccc1OC", "note": "(stereo unspecified)", "activity": "1.3%"}
{"smiles": "COc1ccc(/C(O)=C2/C(=O)C(=O)N(CCN(C)C)C2c2ccncc2)c(C)c1", "note": "(stereo unspecified)", "activity": "2.3%"}
{"smiles": "COc1cc(CN2CCCC(Nc3ccc4c(c3)OCO4)C2)c(Cl)cc1O", "note": "(stereo unspecified)", "activity": "inactive: -1.2%"}
{"smiles": "Cc1cc2c(SCC(=O)O)ncnc2s1", "activity": "inactive: -2.1%"}
{"smiles": "c1ccc(-c2nn3c(-c4ccco4)nnc3s2)nc1", "activity": "inactive: -4.2%"}
{"smiles": "Cc1cnc(SCc2cnc(C)nc2N)nc1", "activity": "2.6%"}
{"smiles": "CN1CCC(N2CCCC(NC(=O)C3(N4CCCCC4)CCCCC3)C2)CC1", "note": "(stereo unspecified)", "activity": "2.9%"}
{"smiles": "Cc1ccc(SCCSc2nc(N)cc(=O)[nH]2)cc1", "activity": "inactive: -14.1%"}
{"smiles": "Cc1cc(=O)[nH]c(SCC(=O)N2CCCCCC2)n1", "activity": "inactive: -1.9%"}
{"smiles": "Cc1ccc(CN2CCN(CC#Cc3ccccc3)CC2CCO)o1", "note": "(stereo unspecified)", "activity": "inactive: -1.5%"}
{"smiles": "O=C1NCCN(CCc2ccccc2)C1CC(=O)N1CCC(N2CCOCC2)CC1", "note": "(stereo unspecified)", "activity": "7.1%"}
{"smiles": "Cc1cn2c3c(=O)n(C)c(=O)n(C)c3nc2n1C1CCCC1", "activity": "inactive: -4.1%"}
{"smiles": "CC(C)(C)c1ccc2c(c1)N(CC(=O)N1CCOCC1)C(=O)CO2", "activity": "6%"}
{"smiles": "Cc1c(CN2CCc3[nH]nc(-c4ccc5c(c4)OCO5)c3C2)cnn1C", "activity": "6%"}
{"smiles": "CCOc1cc(S(=O)(=O)NC2CCCC2)c(OCC)cc1C", "activity": "1.8%"}
{"smiles": "O=C(c1cc(COc2ccccc2)[nH]n1)N1CCN(Cc2cccs2)CC1", "activity": "0.6%"}
{"smiles": "O=C(NC1CC(=O)N(CCCc2ccccc2)C1)C(=O)c1ccccc1", "note": "(stereo unspecified)", "activity": "inactive: -1%"}
{"smiles": "COc1ccc(C2CC(=O)c3cn[nH]c3C2)cc1", "note": "(stereo unspecified)", "activity": "inactive: -17.7%"}
{"smiles": "Cc1ccoc1C(=O)N1CCC2(CCCN(CCC3CCCCC3)C2=O)C1", "note": "(stereo unspecified)", "activity": "8.1%"}
{"smiles": "CC(C)(CO)NC(=O)CC(c1ccccc1)c1ccc(Cl)cc1", "note": "(stereo unspecified)", "activity": "0.5%"}
{"smiles": "O=C(Nc1ccc2[nH]c(=O)[nH]c2c1)c1cc2ccccc2o1", "activity": "inactive: -16.7%"}
{"smiles": "CCN(CC)CC(O)COc1cc(CN(C)Cc2nccn2CC)ccc1OC", "note": "(stereo unspecified)", "activity": "inactive: -2.5%"}
{"smiles": "C=CCOc1ccccc1CN1CCC(CCC(=O)NCCOC)CC1", "activity": "inactive: -4.1%"}
{"smiles": "CCS(=O)(=O)c1ncc(CN(C)CCC2CCOCC2)n1CCOC", "activity": "0.9%"}
{"smiles": "CCCN1CCC(NC(=O)c2cn(Cc3c(F)cccc3F)nn2)CC1", "activity": "20.4%"}
{"smiles": "O=C1CCCN1CCCC(=O)N1CCOC(Cc2ccccc2Cl)C1", "note": "(stereo unspecified)", "activity": "4.4%"}
{"smiles": "COc1cccc(CN2CCCC(NCc3ccc4nonc4c3)C2)c1", "note": "(stereo unspecified)", "activity": "inactive: -3.2%"}
{"smiles": "CCCS(=O)(=O)c1ccccc1C(=O)N1CCc2ccccc21", "activity": "2.3%"}
{"smiles": "COc1ccccc1C(=O)C1CCCN(Cc2ccc(OCCO)cc2)C1", "note": "(stereo unspecified)", "activity": "1.5%"}
{"smiles": "CN(Cc1cccnc1)Cc1ccccc1OCC(O)CN1CCCCC1", "note": "(stereo unspecified)", "activity": "2.6%"}
{"smiles": "COc1cc(OC)cc(C(=O)NCC2CCCN(CCCSC)C2)c1", "note": "(stereo unspecified)", "activity": "inactive: -0.2%"}
{"smiles": "C=CCn1cc(CNC2CC(=O)N(Cc3cccc(F)c3)C2)c(C)n1", "note": "(stereo unspecified)", "activity": "inactive: -1.3%"}
{"smiles": "CCN(CC)CCN(CC)C(=O)c1cc(COc2ccc(C)cc2OC)on1", "activity": "4.1%"}
{"smiles": "Cc1nc(CC(=O)N2CCCC(CNC(=O)c3ccc(F)cc3)C2)cs1", "note": "(stereo unspecified)", "activity": "inactive: -1.5%"}
{"smiles": "CC(C)n1ncnc1NC(=O)NCc1cccc(OC(F)(F)F)c1", "activity": "4.9%"}
{"smiles": "O=C1COc2ccc(C(=O)NC3CC3)cc2N1", "activity": "inactive: -9.4%"}
{"smiles": "CSc1ccc(C(=O)C2CCCN(C(=O)c3cccnc3SC)C2)cc1", "note": "(stereo unspecified)", "activity": "inactive: -0.9%"}
{"smiles": "Cc1cc(C(=O)N2CCOC(CCCc3ccccc3)C2)nc(N)n1", "note": "(stereo unspecified)", "activity": "1.5%"}
{"smiles": "C=C(C)CN(CC)Cc1nc(-c2ccc(F)cc2)oc1C", "activity": "7.1%"}
{"smiles": "O=C(NCC1CCCN(Cc2ccncc2)C1)c1cccc(C(F)(F)F)c1", "note": "(stereo unspecified)", "activity": "3.6%"}
{"smiles": "CCN1CCN(Cc2nn(-c3ccc(F)cc3)c(N)c2-c2ccccc2)CC1", "activity": "4.5%"}
{"smiles": "C=C(C)CNCc1ccc(OCC(O)CN2CCSCC2)c(OC)c1", "note": "(stereo unspecified)", "activity": "2.3%"}
{"smiles": "O=C(Nc1cccc(F)c1)N1CCCC(CNS(=O)(=O)Cc2ccccc2)C1", "note": "(stereo unspecified)", "activity": "6.7%"}
{"smiles": "O=C(Cc1cccnc1)N1CCC2(CCCN(Cc3ccc(F)cc3)C2=O)C1", "note": "(stereo unspecified)", "activity": "7.4%"}
{"smiles": "O=C(Cc1ccc2c(c1)OCO2)NC1CCCN(C2CCCCCC2)C1", "note": "(stereo unspecified)", "activity": "0.8%"}
{"smiles": "CCCn1c(=O)c2c(nc3n(CCCOC)c(C)c(C)n23)n(C)c1=O", "activity": "2.7%"}
{"smiles": "CCc1noc(C)c1C(=O)N1CCC(CCC(=O)N(C)Cc2ccccc2)CC1", "activity": "inactive: -8.5%"}
{"smiles": "CN(CC(O)COc1cccc(CNCCN2CCCC2=O)c1)C1CCCCC1", "note": "(stereo unspecified)", "activity": "1.1%"}
{"smiles": "COc1ccc(NC2CCCN(C(=O)c3cn4c(C)cccc4n3)C2)cc1", "note": "(stereo unspecified)", "activity": "1.3%"}
{"smiles": "COc1ccc(OC)c(-c2nc(CN3CCN(C(=O)c4ccco4)CC3)c(C)o2)c1", "activity": "inactive: -4%"}
{"smiles": "O=C(Cn1ccnc1)N(CC1CCN(C2Cc3ccccc3C2)CC1)CC1CCCO1", "note": "(stereo unspecified)", "activity": "7.8%"}
{"smiles": "CSc1ncc(Cl)c(C(=O)Nc2ccc(Br)cc2)n1", "activity": "inactive: -12.9%"}
{"smiles": "Fc1cccc(C2(CNCCNc3cccnc3)CCOC2)c1", "note": "(stereo unspecified)", "activity": "8.2%"}
{"smiles": "Cc1ncc(CN2CCN(Cc3ccc(C)o3)C(CCO)C2)[nH]1", "note": "(stereo unspecified)", "activity": "4.8%"}
{"smiles": "CCn1cncc1CN1CCCC1c1ccc(C(=O)NCc2ccoc2)s1", "note": "(stereo unspecified)", "activity": "9.3%"}
{"smiles": "Cc1c(CN2CC[C@@H](N3CCOCC3)[C@H](O)C2)[nH]c2c(Cl)cccc12", "activity": "inactive: -1.8%"}
{"smiles": "Cc1cc(C)c(S(=O)(=O)Nc2ncn[nH]2)c(C)c1", "activity": "inactive: -18.4%"}
{"smiles": "O=C(Nc1c(F)cc(F)cc1Br)c1cnn2cccnc12", "activity": "0.1%"}
{"smiles": "CC1CN(C(=O)c2ccc(OCc3ccccc3)cc2)CC(C)O1", "note": "(stereo unspecified)", "activity": "inactive: -3.1%"}
{"smiles": "O=C1CCC(C(=O)N2CCC(Oc3cccc(F)c3)CC2)CN1CCc1ccccn1", "note": "(stereo unspecified)", "activity": "0.7%"}
{"smiles": "CCN1CCN(CC(O)COc2ccc(CNCCCOC(C)C)cc2OC)CC1", "note": "(stereo unspecified)", "activity": "4%"}
{"smiles": "CCc1nc(CN2CCC(CCC(=O)Nc3ccccc3)CC2)c(C)[nH]1", "activity": "3.8%"}
{"smiles": "Cc1ccc2c(C)nc(Nc3nc(C(C)C)cc(=O)[nH]3)nc2c1", "activity": "10.8%"}
{"smiles": "CN(CCOc1ccccc1)Cc1cnc(S(C)(=O)=O)n1CC1CCCO1", "note": "(stereo unspecified)", "activity": "inactive: -6.1%"}
{"smiles": "COc1ccc(CCN2CCCC(CN(C)C(=O)c3cccnc3)C2)cc1", "note": "(stereo unspecified)", "activity": "inactive: -1.3%"}
